# Results as given in publication PMC11253597.
# Protein sequences, listed by entry. Tags and fused reporters are not part of them. Lines headed by an entry give the natural chain unless they say otherwise; changes in a name come on top.
# UniProt Q8ZMM9: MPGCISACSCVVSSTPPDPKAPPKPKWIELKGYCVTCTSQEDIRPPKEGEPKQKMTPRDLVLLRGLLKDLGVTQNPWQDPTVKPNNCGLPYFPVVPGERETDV
# UniProt Q13425: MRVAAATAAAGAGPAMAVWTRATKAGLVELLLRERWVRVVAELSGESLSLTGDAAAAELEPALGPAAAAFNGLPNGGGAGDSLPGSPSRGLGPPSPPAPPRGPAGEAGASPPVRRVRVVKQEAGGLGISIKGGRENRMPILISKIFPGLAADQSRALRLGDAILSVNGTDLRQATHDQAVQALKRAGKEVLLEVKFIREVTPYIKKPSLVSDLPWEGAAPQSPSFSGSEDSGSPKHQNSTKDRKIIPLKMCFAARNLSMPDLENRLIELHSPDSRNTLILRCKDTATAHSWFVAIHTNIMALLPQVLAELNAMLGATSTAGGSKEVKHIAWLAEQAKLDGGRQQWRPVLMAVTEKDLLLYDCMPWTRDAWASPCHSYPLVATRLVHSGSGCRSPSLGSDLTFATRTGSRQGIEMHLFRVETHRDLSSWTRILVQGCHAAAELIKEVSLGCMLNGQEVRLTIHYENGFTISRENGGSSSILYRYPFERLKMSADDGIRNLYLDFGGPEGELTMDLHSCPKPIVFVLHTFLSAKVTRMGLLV
# UniProt P46939: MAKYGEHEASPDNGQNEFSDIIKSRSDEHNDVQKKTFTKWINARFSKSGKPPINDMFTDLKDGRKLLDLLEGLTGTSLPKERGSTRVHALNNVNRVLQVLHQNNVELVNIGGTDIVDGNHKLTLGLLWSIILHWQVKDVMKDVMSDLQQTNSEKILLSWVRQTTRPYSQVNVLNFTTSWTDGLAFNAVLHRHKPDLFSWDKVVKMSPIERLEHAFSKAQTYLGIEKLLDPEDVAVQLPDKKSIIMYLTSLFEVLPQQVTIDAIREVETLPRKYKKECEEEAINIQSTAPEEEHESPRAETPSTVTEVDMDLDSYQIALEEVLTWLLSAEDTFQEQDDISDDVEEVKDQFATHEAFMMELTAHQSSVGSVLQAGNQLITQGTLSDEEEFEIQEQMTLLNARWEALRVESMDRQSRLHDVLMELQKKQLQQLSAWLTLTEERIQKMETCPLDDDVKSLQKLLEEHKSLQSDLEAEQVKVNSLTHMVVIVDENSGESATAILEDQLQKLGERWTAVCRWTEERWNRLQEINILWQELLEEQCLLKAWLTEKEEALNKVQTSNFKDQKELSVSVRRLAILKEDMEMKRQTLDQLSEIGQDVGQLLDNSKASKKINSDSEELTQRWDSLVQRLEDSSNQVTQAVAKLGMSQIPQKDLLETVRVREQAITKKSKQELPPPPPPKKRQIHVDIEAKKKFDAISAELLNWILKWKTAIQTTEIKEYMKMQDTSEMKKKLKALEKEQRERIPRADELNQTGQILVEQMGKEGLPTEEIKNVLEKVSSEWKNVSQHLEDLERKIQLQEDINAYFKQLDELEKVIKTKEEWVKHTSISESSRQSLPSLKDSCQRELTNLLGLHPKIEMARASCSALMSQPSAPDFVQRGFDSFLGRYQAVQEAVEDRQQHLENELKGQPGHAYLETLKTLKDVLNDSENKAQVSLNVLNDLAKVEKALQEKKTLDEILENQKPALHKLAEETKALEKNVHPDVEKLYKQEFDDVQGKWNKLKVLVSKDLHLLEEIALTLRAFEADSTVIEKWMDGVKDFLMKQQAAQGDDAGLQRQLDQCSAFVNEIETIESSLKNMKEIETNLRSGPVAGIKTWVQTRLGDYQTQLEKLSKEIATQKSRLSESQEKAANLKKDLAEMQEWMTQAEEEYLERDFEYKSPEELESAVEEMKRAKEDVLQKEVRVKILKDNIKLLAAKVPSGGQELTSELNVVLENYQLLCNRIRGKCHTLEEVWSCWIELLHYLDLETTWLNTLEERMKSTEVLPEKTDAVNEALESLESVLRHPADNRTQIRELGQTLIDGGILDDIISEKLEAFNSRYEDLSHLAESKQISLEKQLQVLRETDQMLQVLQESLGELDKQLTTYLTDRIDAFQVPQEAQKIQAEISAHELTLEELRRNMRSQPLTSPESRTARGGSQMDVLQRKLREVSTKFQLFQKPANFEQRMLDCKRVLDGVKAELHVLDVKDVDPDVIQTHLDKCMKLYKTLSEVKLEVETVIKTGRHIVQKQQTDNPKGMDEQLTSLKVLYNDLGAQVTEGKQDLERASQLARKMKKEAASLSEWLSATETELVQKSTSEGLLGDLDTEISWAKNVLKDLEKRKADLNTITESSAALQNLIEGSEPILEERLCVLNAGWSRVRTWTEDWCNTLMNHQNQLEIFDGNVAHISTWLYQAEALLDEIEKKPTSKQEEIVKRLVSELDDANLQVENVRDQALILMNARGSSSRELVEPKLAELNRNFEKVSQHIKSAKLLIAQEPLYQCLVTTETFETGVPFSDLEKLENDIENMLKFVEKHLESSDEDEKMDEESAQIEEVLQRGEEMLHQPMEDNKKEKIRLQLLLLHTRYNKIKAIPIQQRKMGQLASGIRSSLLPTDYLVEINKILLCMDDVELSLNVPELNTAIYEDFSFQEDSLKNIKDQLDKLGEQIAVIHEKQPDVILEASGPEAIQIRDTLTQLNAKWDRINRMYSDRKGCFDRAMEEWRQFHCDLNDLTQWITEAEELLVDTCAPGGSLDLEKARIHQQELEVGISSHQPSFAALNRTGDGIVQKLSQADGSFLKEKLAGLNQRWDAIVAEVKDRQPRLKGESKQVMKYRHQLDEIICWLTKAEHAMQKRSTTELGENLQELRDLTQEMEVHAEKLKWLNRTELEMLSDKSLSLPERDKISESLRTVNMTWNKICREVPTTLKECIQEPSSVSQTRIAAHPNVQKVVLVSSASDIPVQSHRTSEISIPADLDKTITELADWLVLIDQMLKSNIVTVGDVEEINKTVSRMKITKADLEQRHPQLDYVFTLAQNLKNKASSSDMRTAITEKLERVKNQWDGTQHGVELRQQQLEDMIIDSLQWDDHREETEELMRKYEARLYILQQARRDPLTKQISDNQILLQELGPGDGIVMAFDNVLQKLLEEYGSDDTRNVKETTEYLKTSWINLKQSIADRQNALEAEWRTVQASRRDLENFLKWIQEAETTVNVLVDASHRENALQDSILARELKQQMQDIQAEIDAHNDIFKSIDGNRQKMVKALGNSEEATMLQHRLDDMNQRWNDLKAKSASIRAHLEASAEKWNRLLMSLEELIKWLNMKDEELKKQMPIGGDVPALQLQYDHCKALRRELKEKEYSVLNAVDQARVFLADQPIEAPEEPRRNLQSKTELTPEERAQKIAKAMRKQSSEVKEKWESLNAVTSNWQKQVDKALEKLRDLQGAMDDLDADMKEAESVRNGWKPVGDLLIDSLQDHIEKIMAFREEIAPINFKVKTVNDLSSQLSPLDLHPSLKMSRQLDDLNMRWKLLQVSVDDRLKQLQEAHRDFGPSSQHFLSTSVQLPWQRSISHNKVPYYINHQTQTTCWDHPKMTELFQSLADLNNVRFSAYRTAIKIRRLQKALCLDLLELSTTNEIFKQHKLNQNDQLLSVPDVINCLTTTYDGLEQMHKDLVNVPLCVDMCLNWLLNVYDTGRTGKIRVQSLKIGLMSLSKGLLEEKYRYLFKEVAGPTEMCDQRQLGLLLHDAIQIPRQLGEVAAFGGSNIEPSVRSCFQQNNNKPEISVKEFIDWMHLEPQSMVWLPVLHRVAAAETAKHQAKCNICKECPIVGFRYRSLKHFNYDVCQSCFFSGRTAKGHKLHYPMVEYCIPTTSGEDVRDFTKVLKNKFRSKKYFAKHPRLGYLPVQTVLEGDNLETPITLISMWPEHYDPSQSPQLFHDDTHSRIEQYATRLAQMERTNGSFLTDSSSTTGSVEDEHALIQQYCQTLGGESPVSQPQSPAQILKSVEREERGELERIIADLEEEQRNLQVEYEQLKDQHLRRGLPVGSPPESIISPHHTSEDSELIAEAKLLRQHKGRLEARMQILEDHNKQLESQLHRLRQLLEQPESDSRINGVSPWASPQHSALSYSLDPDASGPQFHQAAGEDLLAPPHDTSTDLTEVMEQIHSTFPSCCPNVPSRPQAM
# UniProt O43242: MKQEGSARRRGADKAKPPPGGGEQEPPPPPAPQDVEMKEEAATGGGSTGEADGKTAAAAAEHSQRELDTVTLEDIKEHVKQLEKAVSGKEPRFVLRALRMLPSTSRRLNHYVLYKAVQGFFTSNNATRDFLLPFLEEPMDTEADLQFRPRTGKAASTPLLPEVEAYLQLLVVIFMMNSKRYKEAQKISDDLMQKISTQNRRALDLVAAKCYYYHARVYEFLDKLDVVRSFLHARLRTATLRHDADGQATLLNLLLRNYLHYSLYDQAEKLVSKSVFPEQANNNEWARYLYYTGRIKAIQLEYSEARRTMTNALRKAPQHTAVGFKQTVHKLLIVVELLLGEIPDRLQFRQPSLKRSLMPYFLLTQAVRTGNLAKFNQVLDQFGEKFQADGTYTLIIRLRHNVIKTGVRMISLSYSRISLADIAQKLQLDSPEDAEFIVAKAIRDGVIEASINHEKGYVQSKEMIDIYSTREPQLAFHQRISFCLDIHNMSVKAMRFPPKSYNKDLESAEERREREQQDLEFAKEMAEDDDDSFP
# UniProt Q9BVA1: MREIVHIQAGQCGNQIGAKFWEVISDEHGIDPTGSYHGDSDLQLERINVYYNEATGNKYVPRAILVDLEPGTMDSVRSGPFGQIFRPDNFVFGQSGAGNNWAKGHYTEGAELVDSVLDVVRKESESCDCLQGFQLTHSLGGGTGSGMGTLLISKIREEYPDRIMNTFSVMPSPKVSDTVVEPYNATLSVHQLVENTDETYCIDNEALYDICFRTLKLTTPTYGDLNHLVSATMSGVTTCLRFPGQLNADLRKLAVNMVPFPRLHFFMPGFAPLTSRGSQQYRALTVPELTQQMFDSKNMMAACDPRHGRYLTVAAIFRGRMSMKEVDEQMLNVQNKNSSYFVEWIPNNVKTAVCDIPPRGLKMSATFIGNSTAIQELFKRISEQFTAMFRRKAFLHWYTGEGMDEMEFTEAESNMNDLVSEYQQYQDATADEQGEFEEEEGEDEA
# These are yes or no findings as the source states them, for the method shown. Binding seen in cells or lysates may run through a third protein. Here binding means that the protein was enriched with, or labelled near, the bait; the list need not be complete. For some assays here: No binding means not detected with the bait.
# B1: α-Catulin (protein, UniProt Q9UBT7 1-734)
# chain: MAASPGPAGVGGAGAVYGSGSSGFALDSGLEIKTRSVEQTLLPLVSQITTLINHKDNTKKSDKTLQAIQRVGQAVNLAVGRFVKVGEAIANENWDLKEEINIACIEAKQAGETIAALTDITNLNHLESDGQITIFTDKTGVIKAARLLLSSVTKVLLLADRVVIKQIITSRNKVLATMERLEKVNSFQEFVQIFSQFGNEMVEFAHLSGDRQNDLKDEKKKAKMAAARAVLEKCTMMLLTASKTCLRHPNCESAHKNKEGVFDRMKVALDKVIEIVTDCKPNGETDISSISIFTGIKEFKMNIEALRENLYFQSKENLSVTLEVILERMEDFTDSAYTSHEHRERILELSTQARMELQQLISVWIQAQSKKTKSIAEELELSILKISHSLNELKKELHSTATQLAADLLKYHADHVVLKALKLTGVEGNLEALAEYACKLSEQKEQLVETCRLLRHISGTEPLEITCIHAEETFQVTGQQIISAAETLTLHPSSKIAKENLDVFCEAWESQISDMSTLLREINDVFEGRRGEKYGYLSLPKPMKNNANLKSLKPDKPDSEEQAKIAKLGLKLGLLTSDADCEIEKWEDQENEIVQYGRNMSSMAYSLYLFTRGEGPLKTSQDLIHQLEVFAAEGLKLTSSVQAFSKQLKDDDKLMLLLEINKLIPLCHQLQTVTKTSLQNKVFLKVDKCITKTRSMMALLVQLLSLCYKLLKKLQMENNGWVSVTNKDTMDSKT
# B2: β-Dystrobrevin (protein, UniProt O60941 1-627)
# chain: MIEESGNKRKTMAEKRQLFIEMRAQNFDVIRLSTYRTACKLRFVQKRCNLHLVDIWNMIEAFRDNGLNTLDHTTEISVSRLETVISSIYYQLNKRLPSTHQISVEQSISLLLNFMIAAYDSEGRGKLTVFSVKAMLATMCGGKMLDKLRYVFSQMSDSNGLMIFSKFDQFLKEVLKLPTAVFEGPSFGYTEHSVRTCFPQQRKIMLNMFLDTMMADPPPQCLVWLPLMHRLAHVENVFHPVECSYCRCESMMGFRYRCQQCHNYQLCQNCFWRGHAGGPHSNQHQMKEHSSWKSPAKKLSHAISKSLGCVPTREPPHPVFPEQPEKPLDLAHIVPPRPLTNMNDTMVSHMSSGVPTPTKRLQYSQDIPSHLADEHALIASYVARLQHCARVLDSPSRLDEEHRLIARYAARLAAEAGNVTRPPTDLSFNFDANKQQRQLIAELENKNREILQEIQRLRLEHEQASQPTPEKAQQNPTLLAELRLLRQRKDELEQRMSALQESRRELMVQLEELMKLLKEEEQKQAAQATGSPHTSPTHGGGRPMPMPVRSTSAGSTPTHCPQDSLSGVGGDVQEAFAQGTRRNLRNDLLVAADSITNTMSSLVKELHSAEEGAEEEEEKMQNGKDRG
# B3: Protein lin-7 homolog C (protein, UniProt Q9NUP9 1-197)
# chain: MAALGEPVRLERDICRAIELLEKLQRSGEVPPQKLQALQRVLQSEFCNAVREVYEHVYETVDISSSPEVRANATAKATVAAFAASEGHSHPRVVELPKTEEGLGFNIMGGKEQNSPIYISRIIPGGIADRHGGLKRGDQLLSVNGVSVEGEHHEKAVELLKAAQGKVKLVVRYTPKVLEEMESRFEKMRSAKRRQQT
# B4: α-dystrobrevin (protein, UniProt Q9Y4J8 1-743)
# chain: MIEDSGKRGNTMAERRQLFAEMRAQDLDRIRLSTYRTACKLRFVQKKCNLHLVDIWNVIEALRENALNNLDPNTELNVSRLEAVLSTIFYQLNKRMPTTHQIHVEQSISLLLNFLLAAFDPEGHGKISVFAVKMALATLCGGKIMDKLRYIFSMISDSSGVMVYGRYDQFLREVLKLPTAVFEGPSFGYTEQSARSCFSQQKKVTLNGFLDTLMSDPPPQCLVWLPLLHRLANVENVFHPVECSYCHSESMMGFRYRCQQCHNYQLCQDCFWRGHAGGSHSNQHQMKEYTSWKSPAKKLTNALSKSLSCASSREPLHPMFPDQPEKPLNLAHIVDTWPPRPVTSMNDTLFSHSVPSSGSPFITRSSPPKDSEVEQNKLLARAAPAFLKGKGIQYSLNVADRLADEHVLIGLYVNMLRNNPSCMLESSNRLDEEHRLIARYAARLAAESSSSQPPQQRSAPDISFTIDANKQQRQLIAELENKNREILQEIQRLRLEHEQASQPTPEKAQQNPTLLAELRLLRQRKDELEQRMSALQESRRELMVQLEGLMKLLKTQGAGSPRSSPSHTISRPIPMPIRSASACSTPTHTPQDSLTGVGGDVQEAFAQSSRRNLRNDLLVAADSITNTMSSLVKELNSEVGSETESNVDSEFARTQFEDLVPSPTSEKAFLAQIHARKPGYIHSGATTSTMRGDMVTEDADPYVQPEDENYENDSVRQLENELQMEEYLKQKLQDEAYQVSLQG
# B5: α-1-Syntrophin (protein, UniProt Q13424 1-505)
# chain: MASGRRAPRTGLLELRAGAGSGAGGERWQRVLLSLAEDVLTVSPADGDPGPEPGAPREQEPAQLNGAAEPGAGPPQLPEALLLQRRRVTVRKADAGGLGISIKGGRENKMPILISKIFKGLAADQTEALFVGDAILSVNGEDLSSATHDEAVQVLKKTGKEVVLEVKYMKDVSPYFKNSTGGTSVGWDSPPASPLQRQPSSPGPTPRNFSEAKHMSLKMAYVSKRCTPNDPEPRYLEICSADGQDTLFLRAKDEASARSWATAIQAQVNTLTPRVKDELQALLAATSTAGSQDIKQIGWLTEQLPSGGTAPTLALLTEKELLLYLSLPETREALSRPARTAPLIATRLVHSGPSKGSVPYDAELSFALRTGTRHGVDTHLFSVESPQELAAWTRQLVDGCHRAAEGVQEVSTACTWNGRPCSLSVHIDKGFTLWAAEPGAARAVLLRQPFEKLQMSSDDGASLLFLDFGGAEGEIQLDLHSCPKTIVFIIHSFLSAKVTRLGLLA
# B6: β-1-Syntrophin (protein, UniProt Q13884 1-538)
# chain: MAVAAAAAAAGPAGAGGGRAQRSGLLEVLVRDRWHKVLVNLSEDALVLSSEEGAAAYNGIGTATNGSFCRGAGAGHPGAGGAQPPDSPAGVRTAFTDLPEQVPESISNQKRGVKVLKQELGGLGISIKGGKENKMPILISKIFKGLAADQTQALYVGDAILSVNGADLRDATHDEAVQALKRAGKEVLLEVKYMREATPYVKKGSPVSEIGWETPPPESPRLGGSTSDPPSSQSFSFHRDRKSIPLKMCYVTRSMALADPENRQLEIHSPDAKHTVILRSKDSATAQAWFSAIHSNVNDLLTRVIAEVREQLGKTGIAGSREIRHLGWLAEKVPGESKKQWKPALVVLTEKDLLIYDSMPRRKEAWFSPVHTYPLLATRLVHSGPGKGSPQAGVDLSFATRTGTRQGIETHLFRAETSRDLSHWTRSIVQGCHNSAELIAEISTACTYKNQECRLTIHYENGFSITTEPQEGAFPKTIIQSPYEKLKMSSDDGIRMLYLDFGGKDGEIQLDLHSCPKPIVFIIHSFLSAKITRLGLVA
# Biological target: Flag::SpvD (S. Typhimurium 12023 (stated for pgfp::spvD))
# Assay: affinity purification with mass spectrometry; anti-Flag M2 affinity gel on lysates of HEK293 cells transiently transfected with pflag::sseM or pflag::spvD for 16 h; buffers B and C; LC-MS/MS
row,Molecule,binding
1,B1,no binding
2,B2,no binding
3,B3,no binding
4,B4,no binding

# Biological target: Flag::SseM (Salmonella enterica serovar Typhimurium) (UniProt Q8ZMM9)
# Assay: as above
row,Molecule,binding
1,β-2-syntrophin (from UniProt Q13425 1-540),binds
2,Utrophin (from UniProt P46939 1-3433),binds
3,26S proteasome non-ATPase regulatory subunit 3 (from UniProt O43242 1-534),binds
4,Dystrophin (from UniProt P11532 1-3685),binds
5,Tubulin β-2B chain (from UniProt Q9BVA1 1-445),binds
6,B1,binds
7,B2,binds
8,B3,binds
9,B5,binds
10,B6,binds
